We go through 26 compounds from PubChem BioAssay AID248 (DTP/NCI, 2004).

The list shows only some results of the screen, not a fair sample: it gathers tests that were run many times, whatever their T/C, doses with no T/C, and many T/C values between a quarter and a half above the control. Other doses and runs of a compound stand elsewhere. T/C gives the treated animals as a percentage of the vehicle group. Some entries give survivors of the animals treated and no T/C: the source holds a T/C of zero for them, seemingly a mark for toxic or unscored doses. Some doses without a T/C left all or most animals alive at the check, yet need not have been tolerated: the source hardly ever lists a survival T/C far under the control, and the zero likely stands for such cases as well. Counts of survivors are from the toxicity check (mostly the fifth day) where no day follows; animals may have died later. Schedule codes are those of the source, read here as Q, the interval in days (D) or hours (H), X, the number of doses. Some doses were run more than once; their values stand side by side, smallest first. Some schedules carry Z or #; the key to these is not given. Where survival is the endpoint, this PubChem deposit counts one and a half times the control or more as active, and values a quarter to a half above the control carry no call in these data; other NCI protocols may use other cut-offs. Some T/C values are followed by the survivors on the day toxicity was checked, most often the fifth; without a count, all were alive then. Marks such as (2×) stand for listed records that agree.

In this test the test system is L1210 leukemia ip in BDF1 mice, survival T/C. Description: NCI In Vivo Anticancer Drug Screen. Data for tumor model L1210 Leukemia (intraperitoneal) in B6D2F1 (BDF1) mice. Conditions: higher T/C = longer survival.
Setting [1] is: T/C endpoint: mean survival time, dose: 100.0 mg/kg/injection, schedule: Q04DX003 (ip), vehicle: saline with Tween-80.
Setting [2] is: T/C endpoint: mean survival time, dose: 400.0 mg/kg/injection, schedule: Q01DX001 (ip), vehicle: saline.
Where [3] appears, read: T/C endpoint: mean survival time, dose: 400.0 mg/kg/injection, schedule: Q04DX002 (ip), vehicle: Klucel (hydroxypropylcellulose) (HPC).
The mark [4] stands for this setting: T/C endpoint: mean survival time, dose: 400.0 mg/kg/injection, schedule: Q04DX003 (ip), vehicle: Klucel (hydroxypropylcellulose) (HPC).
Where [5] appears, read: T/C endpoint: mean survival time, dose: 200.0 mg/kg/injection, schedule: Q01DX001 (ip), vehicle: saline.
The mark [6] stands for this setting: T/C endpoint: mean survival time, dose: 200.0 mg/kg/injection, schedule: Q01DX009 (ip), vehicle: saline with Tween-80.
The mark [7] stands for this setting: T/C endpoint: mean survival time, dose: 400.0 mg/kg/injection, schedule: Q01DX009 (ip), vehicle: saline with Tween-80.

For the compound `Cc1ncc(C#N)n1Cc1ccccc1`, the survivor count (T/C endpoint: mean survival time, dose: 400.0 mg/kg/injection, schedule: Q01DX009 (ip), vehicle: Klucel (hydroxypropylcellulose) (HPC)) is on record as 1 of 3.

Consider `CCOC(=O)c1ccc(NC(=O)Nc2ccccc2OC)cc1`, for which the survivor count is on record as 6 of 6 under setting [1] and 6 of 6 (T/C endpoint: mean survival time, dose: 400.0 mg/kg/injection, schedule: Q04DX002 (ip), vehicle: saline with Tween-80).

With `Nc1cccnc1NCC(O)c1ccccc1` (stereo unspecified), the survivor count under setting [2] is 1 of 4.

Consider `CC(C)(C)N(CSc1ccc(Cl)cc1)CSc1ccc(Cl)cc1`, for which the survivor count under setting [2] is reported as 3 of 6.

As to `CC(=O)Cc1cc(C)nc(NC#N)n1`, the survivor count under setting [3] was 3 of 3.

Take `CC(=O)OCC1OC(N2C(=O)/C(=C/c3cccs3)SC2=S)C(OC(C)=O)C(OC(C)=O)C1OC(C)=O` (stereo unspecified): under “T/C endpoint: mean survival time, dose: 400.0 mg/kg/injection, schedule: Q01DX005 (ip), vehicle: other”, the survivor count is 0 of 6.

As to `CCOC(=O)C(NC(=O)CCl)C(=O)OCC`, under setting [4], the survivor count is recorded as 4 of 6.

With `O=C(COc1ccc(Cl)cc1Cl)NCCSCc1ccccc1`, the survivor count (T/C endpoint: mean survival time, dose: 200.0 mg/kg/injection, schedule: Q01DX009 (ip), vehicle: Klucel (hydroxypropylcellulose) (HPC)) is 6 of 6.

On to `Cc1ncc(CO)c(/C=N/N=C(N)N)c1O`, for which the survivor count (T/C endpoint: mean survival time, dose: 60.0 mg/kg/injection, schedule: Q01DX Z (oral), vehicle: methylcellulose (MC)) was 6 of 6.

Take `CC([NH-])C(C)[NH-].[Cl][Pt+2][Cl]` (stereo unspecified): for the setting “T/C endpoint: mean survival time, dose: 12.5 mg/kg/injection, schedule: Q04DX002 (ip), vehicle: Klucel (hydroxypropylcellulose) (HPC)”, the T/C is 144 % of control. In addition, the survivor count reads like this: (T/C endpoint: mean survival time, dose: 25.0 mg/kg/injection, schedule: Q04DX002 (ip), vehicle: Klucel (hydroxypropylcellulose) (HPC)) 3 of 3; (T/C endpoint: mean survival time, dose: 50.0 mg/kg/injection, schedule: Q04DX002 (ip), vehicle: Klucel (hydroxypropylcellulose) (HPC)) 1 of 3 and 2 of 3; (T/C endpoint: mean survival time, dose: 100.0 mg/kg/injection, schedule: Q04DX002 (ip), vehicle: Klucel (hydroxypropylcellulose) (HPC)) 0 of 3 and 1 of 3; (T/C endpoint: mean survival time, dose: 200.0 mg/kg/injection, schedule: Q04DX002 (ip), vehicle: Klucel (hydroxypropylcellulose) (HPC)) 0 of 3 and 1 of 3; under setting [3], 0 of 3.

As to `CC1(C)N=C(N)N=C(N)N1c1cccc(/C=C/C=C/c2cccc([N+](=O)[O-])c2)c1`, the survivor count is on record as 0 of 4 under setting [5] and 0 of 4 under setting [2].

Regarding `O=C(O)c1cc([N+](=O)[O-])cc(P(=O)(O)O)c1`, the survivor count is, setting by setting: (T/C endpoint: mean survival time, dose: 100.0 mg/kg/injection, schedule: Q01DX001 (ip), vehicle: saline) 6 of 6; under setting [5], 6 of 6; under setting [2], 6 of 6.

`COc1ccc(CC(=S)N2CCOCC2)cc1`: the survivor count under setting [3] was 3 of 3.

As to `COC(=O)/C=C(\C)Nc1ccc(Cc2ccc(N/C(C)=C/C(=O)OC)cc2)cc1`, under setting [2], the survivor count is listed as 6 of 6.

As for `Cc1ccc(NC(=O)c2ccccc2Cl)cc1Cl`, the T/C (T/C endpoint: mean survival time, dose: 200.0 mg/kg/injection, schedule: Q04DX003 (ip), vehicle: saline) is 125 % of control.

On to `NC(CSC1(c2ccc(Cl)cc2)c2ccccc2-c2ccccc21)C(=O)O` (stereo unspecified), for which the survivor count (T/C endpoint: mean survival time, dose: 200.0 mg/kg/injection, schedule: Q01DX009 (ip), vehicle: other) is 1 of 6.

As for `CN1CCN(C(=O)Nc2cccc(F)c2)CC1`, the survivor count by setting is: under setting [6], 6 of 6; under setting [7], 0 of 6.

As to `Cc1cnc(NCCCC(N)C(=O)O)nc1` (stereo unspecified), under “T/C endpoint: mean survival time, dose: 400.0 mg/kg/injection, schedule: Q04DX002 (ip), vehicle: saline”, the survivor count is given as 3 of 3.

Consider `CCCCOC(=O)c1ccc(OC(=O)Nc2ccc(Cl)cc2)cc1`, for which the T/C is 92, 94, 99, 100 % of control (T/C endpoint: mean survival time, dose: 100.0 mg/kg/injection, schedule: Q01DX009 (ip), vehicle: saline with Tween-80) and 92, 93, 105 % of control [2 of 3 alive] under setting [6]. Also, the survivor count runs as follows: under setting [6], 2 of 6; under setting [7], 3 of 6 and 2 of 3.

As for `NCC(=O)c1ccc(O)c(O)c1`, the T/C is, setting by setting: (T/C endpoint: mean survival time, dose: 100.0 mg/kg/injection, schedule: Q01DX Z (ip), vehicle: methylcellulose (MC)) 126 % of control; (T/C endpoint: mean survival time, dose: 132.0 mg/kg/injection, schedule: Q01DX009 (ip), vehicle: saline) 128 and 141 % of control; (T/C endpoint: mean survival time, dose: 175.0 mg/kg/injection, schedule: Q01DX Z (ip), vehicle: carboxymethylcellulose (CMC)) 126 % of control; (T/C endpoint: mean survival time, dose: 175.0 mg/kg/injection, schedule: Q01DX Z (ip), vehicle: methylcellulose (MC)) 126 % of control; (T/C endpoint: mean survival time, dose: 200.0 mg/kg/injection, schedule: Q01DX009 (ip), vehicle: saline) 135 [5 of 6 alive] and 136 % of control (2×); (T/C endpoint: mean survival time, dose: 300.0 mg/kg/injection, schedule: Q01DX009 (ip), vehicle: saline) 133 and 142 % of control. The T/C by setting is: (T/C endpoint: mean survival time, dose: 394.0 mg/kg/injection, schedule: Q01DX Z (ip), vehicle: carboxymethylcellulose (CMC)) 131 % of control; (T/C endpoint: mean survival time, dose: 400.0 mg/kg/injection, schedule: Q01DX Z (ip), vehicle: carboxymethylcellulose (CMC)) 129 % of control; (T/C endpoint: mean survival time, dose: 600.0 mg/kg/injection, schedule: Q01DX Z (ip), vehicle: carboxymethylcellulose (CMC)) 128 % of control [5 of 6 alive]; (T/C endpoint: mean survival time, dose: 600.0 mg/kg/injection, schedule: Q01DX Z (ip), vehicle: methylcellulose (MC)) 129 % of control; (T/C endpoint: mean survival time, dose: 750.0 mg/kg/injection, schedule: Q01DX Z (ip), vehicle: methylcellulose (MC)) 137 % of control. For the same compound, where the note is “T/C endpoint: mean survival time, dose: 896.0 mg/kg/injection, schedule: Q01DX Z (ip), vehicle: carboxymethylcellulose (CMC)”, the survivor count was 6 of 6.

With `O=P(O)(O)Cc1cccc2ccccc12`, under setting [4], the survivor count is 3 of 3.

Regarding `O=S(=O)(N=C1C=CC(=NS(=O)(=O)c2ccccc2)C=C1)c1ccccc1`, the survivor count (T/C endpoint: mean survival time, dose: 400.0 mg/kg/injection, schedule: Q01DX009 (ip), vehicle: gum acacia) is on record as 6 of 6.

For `c1ccc(C2CC([P+](c3ccccc3)(c3ccccc3)c3ccccc3)=NN2CC[P+](c2ccccc2)(c2ccccc2)c2ccccc2)cc1` (stereo unspecified), the survivor count is, setting by setting: under setting [1], 0 of 6; (T/C endpoint: mean survival time, dose: 200.0 mg/kg/injection, schedule: Q04DX003 (ip), vehicle: saline with Tween-80) 0 of 6; (T/C endpoint: mean survival time, dose: 400.0 mg/kg/injection, schedule: Q04DX003 (ip), vehicle: saline with Tween-80) 0 of 6.

Regarding `CN(C)N=Nc1ccc(C(N)=O)cc1`, the T/C by setting is: (T/C endpoint: median survival time, dose: 23.0 mg/kg/injection, schedule: Q01DX009 (ip), vehicle: steroid suspending solution) 135 % of control; (T/C endpoint: median survival time, dose: 39.0 mg/kg/injection, schedule: Q01DX009 (ip), vehicle: steroid suspending solution) 140 % of control; (T/C endpoint: median survival time, dose: 65.0 mg/kg/injection, schedule: Q04DX003 (ip), vehicle: steroid suspending solution) 130 % of control; (T/C endpoint: median survival time, dose: 108.0 mg/kg/injection, schedule: Q04DX003 (ip), vehicle: steroid suspending solution) 140 % of control; (T/C endpoint: median survival time, dose: 180.0 mg/kg/injection, schedule: Q01DX001 (ip), vehicle: steroid suspending solution) 125 % of control. Also, the survivor count (T/C endpoint: median survival time, dose: 108.0 mg/kg/injection, schedule: Q01DX009 (ip), vehicle: steroid suspending solution) was 8 of 8 and the survivor count (T/C endpoint: median survival time, dose: 500.0 mg/kg/injection, schedule: Q01DX001 (ip), vehicle: steroid suspending solution) is listed as 0 of 8.

For the compound `CN(N=O)C(=O)NCCSc1nc2ncncc2[nH]1`, the T/C (T/C endpoint: mean survival time, dose: 375.0 mg/kg/injection, schedule: Q01DX001 (ip), vehicle: carboxymethylcellulose (CMC)) is 128 % of control [5 of 6 alive].

`CN=C(NCCCOC)c1ccc(NC(=O)c2ccc(C(=O)Nc3ccc(C(=NC)NCCCOC)cc3)c([N+](=O)[O-])c2)cc1`: the survivor count (T/C endpoint: mean survival time, dose: 15.0 mg/kg/injection, schedule: Q01DX Z (ip), vehicle: saline) is recorded as 6 of 6; the survivor count (T/C endpoint: mean survival time, dose: 30.0 mg/kg/injection, schedule: Q01DX Z (ip), vehicle: saline) is reported as 0 of 6; the survivor count (T/C endpoint: mean survival time, dose: 60.0 mg/kg/injection, schedule: Q01DX Z (ip), vehicle: saline) is listed as 0 of 6; the survivor count (T/C endpoint: mean survival time, dose: 120.0 mg/kg/injection, schedule: Q01DX Z (ip), vehicle: saline) is on record as 0 of 6.
